Reference: US8598339B2, “Withanolide isolated from Physalis longifolia and analogs and methods of use thereof” (University of Kansas, priority 2011, dated 2013)
Some entries share one result that the patent states for a list of compounds.

Experiments:
Assay type in all cases: cell-based
Conditions in all cases: at the 2.0 and 10.0 μM amounts; 48 hours
HS766T = experiment: Pancreatic cancer cell viability, HS766T
Experimental: (§1) The activity of the withanolides of this invention were tested in pancreatic cancer cells. […] Moreover, IC50 values were determined for these compounds (Table 14).

Mia PaCa-2 = experiment: Pancreatic cancer cell viability, Mia PaCa-2
Experimental: as §1

Panc1 = experiment: Pancreatic cancer cell viability, Panc1

Measured: reduction of cell viability

CC1=C(C)C(=O)O[C@@H]([C@@H](C)[C@H]2CC[C@H]3[C@@H]4C[C@H]5O[C@]56[C@@H](O)C=CC(=O)[C@]6(CO)[C@H]4CC[C@]23C)C1 (stereo in doubt) [Compound X030]
at least 50%: all assays above

CC(=O)OCC1=C(C)C[C@H]([C@@H](C)C2CC[C@H]3[C@@H]4C[C@H]5O[C@]56[C@@H](OC(C)=O)C=CC(=O)[C@]6(COC(C)=O)[C@H]4CC[C@]23C)OC1=O (stereo partly drawn) [Compound X003, 4,19,27-triacetyl X001]
at least 50%: all assays above

CC1=C(CO)C(=O)O[C@@H]([C@@H](C)[C@H]2CC[C@H]3[C@@H]4C[C@H]5O[C@]56[C@@H](O)C=CC(=O)[C@]6(C)[C@H]4[C@@H](O)C[C@]23C)C1 [Compound X004]
at least 50%: all assays above

CO[C@H]1CC(=O)[C@]2(C)[C@@H]3[C@@H](C[C@H]4O[C@]42[C@H]1O)[C@@H]1CC[C@H]([C@H](C)[C@H]2CC(C)=C(CO)C(=O)O2)[C@@]1(C)C[C@@H]3O [Compound X007]
at least 50%: all assays above

CC1=C(CO)C(=O)O[C@@H]([C@@H](C)[C@H]2CC[C@H]3[C@@H]4C[C@H]5O[C@]56[C@@H](O)[C@@H](OS(=O)(=O)O)CC(=O)[C@]6(CO)[C@H]4CC[C@]23C)C1 [Compound X017]
at least 50%: all assays above
